Test [1] concerns the target T1, NtCDKG;2 (N. tabacum Cyclin-Dependent Kinase G;2), fused to the GAL4 DNA binding domain (Nicotiana tabacum).
T1 sequence: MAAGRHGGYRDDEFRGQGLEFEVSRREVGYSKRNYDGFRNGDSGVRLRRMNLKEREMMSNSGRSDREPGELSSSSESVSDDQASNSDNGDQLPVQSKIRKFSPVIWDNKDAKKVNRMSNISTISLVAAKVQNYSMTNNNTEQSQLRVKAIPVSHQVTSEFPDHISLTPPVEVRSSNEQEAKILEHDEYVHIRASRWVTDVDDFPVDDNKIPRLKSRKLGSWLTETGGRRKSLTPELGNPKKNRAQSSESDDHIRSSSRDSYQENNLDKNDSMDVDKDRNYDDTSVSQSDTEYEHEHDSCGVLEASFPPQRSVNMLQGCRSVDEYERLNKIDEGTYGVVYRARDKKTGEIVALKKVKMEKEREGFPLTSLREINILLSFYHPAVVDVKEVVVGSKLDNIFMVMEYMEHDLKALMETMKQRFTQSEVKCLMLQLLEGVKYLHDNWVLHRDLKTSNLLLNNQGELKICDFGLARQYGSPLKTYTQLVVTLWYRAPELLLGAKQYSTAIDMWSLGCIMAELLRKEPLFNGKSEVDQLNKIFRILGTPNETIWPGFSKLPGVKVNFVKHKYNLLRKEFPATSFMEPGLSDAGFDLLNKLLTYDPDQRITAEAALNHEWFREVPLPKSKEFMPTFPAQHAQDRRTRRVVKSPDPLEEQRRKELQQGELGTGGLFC
Briefly: two-hybrid; pairwise (binary) test in yeast PJ69-4α; DBD-NtCDKG;2 (pDEST32) with AD fusions (pDEST22); growth on SD without leucine, tryptophan and histidine, 30 °C, 2-3 days; 1 mM 3-amino-1,2,4-triazole for NtRanBP1.

Test [2] shares this target. Briefly: two-hybrid; screen of a N. tabacum stigma/style cDNA library with NtCDKG;2 in pDEST32 as bait; positive clones Sanger-sequenced.
Test [3] has as its target T2, NtCDKG;2–cGFP (Nicotiana tabacum).
T2 sequence: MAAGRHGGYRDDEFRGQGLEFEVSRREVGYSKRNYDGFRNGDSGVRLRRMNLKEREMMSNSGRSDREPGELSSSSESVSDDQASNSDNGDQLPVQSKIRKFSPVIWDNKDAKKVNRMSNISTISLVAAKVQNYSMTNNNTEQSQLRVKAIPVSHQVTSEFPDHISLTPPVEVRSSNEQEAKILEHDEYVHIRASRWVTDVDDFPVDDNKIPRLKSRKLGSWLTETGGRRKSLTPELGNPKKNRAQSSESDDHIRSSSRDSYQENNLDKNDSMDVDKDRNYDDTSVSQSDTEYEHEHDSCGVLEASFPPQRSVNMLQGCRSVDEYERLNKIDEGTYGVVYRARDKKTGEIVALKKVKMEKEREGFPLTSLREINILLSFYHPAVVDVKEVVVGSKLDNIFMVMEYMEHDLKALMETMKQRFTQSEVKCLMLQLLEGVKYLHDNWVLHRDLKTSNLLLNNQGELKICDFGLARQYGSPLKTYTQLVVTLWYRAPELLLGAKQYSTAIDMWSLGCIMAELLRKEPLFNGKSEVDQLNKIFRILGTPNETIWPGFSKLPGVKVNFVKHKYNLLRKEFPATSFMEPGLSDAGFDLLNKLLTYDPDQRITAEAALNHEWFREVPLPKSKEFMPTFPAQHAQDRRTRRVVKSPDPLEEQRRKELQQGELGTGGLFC
Kind of test: split reporter; BiFC; NtCDKG;2-cGFP and NtRanBP1-nGFP co-expressed transiently in epidermal cells of N. benthamiana leaves, 48 to 72 h; confocal microscopy; signal in the nucleus.

No constants are given. Whether binding was seen depends on the method and setting. For part of these data: In cells and extracts the contact can be indirect. Some results given as binding are weak or reduced against the parent protein; the word gives no strength. Sequences can lack the tags named with a protein.

B1: NtRanBP1-1a (Ran-Binding Protein 1 of N. tabacum), fused to the GAL4 activation domain (protein, UniProt A0A1S4BK62 1-220)
chain: MASSAEPKLEKKEVEEENPSATADDEDTGAQVAPIVKLQEVTVSTGEENEDVLLDLKSKLYRFDKEGNAWKERGAGTVKLLKHKETAKVRLVMRQSKTLKICANHLVLPTMSIQEHAGNEKSCVWHAADFADGELKEETFCIRFASIENCKSFKEKVEEIAESQQTKSEESEGAAAAATELIEKLSVESKDKENKAEDKEAPAPTEEKEDKNEENAVEKN
For B1, the binding result in test [1] and in test [2] was “binds” each time.

B2: NtRanBP1–nGFP (protein, UniProt A0A1S4BK62 1-220)
chain: MASSAEPKLEKKEVEEENPSATADDEDTGAQVAPIVKLQEVTVSTGEENEDVLLDLKSKLYRFDKEGNAWKERGAGTVKLLKHKETAKVRLVMRQSKTLKICANHLVLPTMSIQEHAGNEKSCVWHAADFADGELKEETFCIRFASIENCKSFKEKVEEIAESQQTKSEESEGAAAAATELIEKLSVESKDKENKAEDKEAPAPTEEKEDKNEENAVEKN
Consider B2, for which, in test [3], the binding entry is “binds”.
